Values of other authors as cited in patent publication EP1181934A1, “INHIBITORS FOR OPTIC HYPOFUNCTION CAUSED BY OPTIC NERVE CELL INJURY INDUCED BY FACTORS OTHER THAN OPTIC CIRCULATORY DISORDER” (Senju Pharmaceutical Co., Ltd., priority 1999, dated 2000).
At least one compound was matched to its structure with a doubt left.

System: ischemic retinal neurocyte disorder
Details: calcium antagonists; experiment models such as high ocular pressure rat models and central retinal artery and vein ligation models; cited from earlier work

Q: With `COC(=O)C1=C(C)NC(C)=C(C(=O)OC)C1c1ccccc1[N+](=O)[O-]` [nifedipine] as the molecule, how does the “inhibition of ischemic retinal neurocyte disorder” value read?
A: inhibited ischemic retinal neurocyte disorder
